Residue numbers refer to the chain shown, from its start. Names and notes keep the numbering of the source. No constants are given. Whether binding was seen depends on the method and setting. In cells and extracts the contact can be indirect. Some entries that bind do so weakly or less than the wild type. Sequences can lack the tags named with a protein. Values belong to the molecule of their own block, whether it stands above or below them.
How the values were obtained:
[1] = biological target: T1, 3x Flag-tagged EDEM2 C408A (human) (UniProt Q9BV94); assay: co-IP; lysates of transfected HCT116 knockout cells; anti-Flag antibody and protein G-coupled Sepharose beads; washed with 50 mM Tris/Cl pH 8.0, 1% NP-40, 150 mM NaCl, then PBS; blots of endogenous partners after reducing and non-reducing SDS-PAGE
T1 sequence: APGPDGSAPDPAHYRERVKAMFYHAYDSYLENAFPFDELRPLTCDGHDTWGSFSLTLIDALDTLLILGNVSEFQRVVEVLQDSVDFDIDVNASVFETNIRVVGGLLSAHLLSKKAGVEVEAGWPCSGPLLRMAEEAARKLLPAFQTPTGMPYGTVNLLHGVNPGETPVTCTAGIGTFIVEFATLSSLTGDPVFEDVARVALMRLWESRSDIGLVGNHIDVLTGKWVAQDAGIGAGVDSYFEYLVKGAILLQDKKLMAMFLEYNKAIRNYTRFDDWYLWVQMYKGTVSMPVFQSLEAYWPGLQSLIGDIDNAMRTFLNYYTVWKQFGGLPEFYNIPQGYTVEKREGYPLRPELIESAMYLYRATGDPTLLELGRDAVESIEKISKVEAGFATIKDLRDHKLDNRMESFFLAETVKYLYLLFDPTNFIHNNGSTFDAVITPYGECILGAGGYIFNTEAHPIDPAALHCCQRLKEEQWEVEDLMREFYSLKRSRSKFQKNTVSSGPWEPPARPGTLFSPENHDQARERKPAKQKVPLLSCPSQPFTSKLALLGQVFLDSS

Protein sequences, listed by entry. Tags and fused reporters are not part of them. Residues count along the entry.
UniProt P07237, residues 18-508: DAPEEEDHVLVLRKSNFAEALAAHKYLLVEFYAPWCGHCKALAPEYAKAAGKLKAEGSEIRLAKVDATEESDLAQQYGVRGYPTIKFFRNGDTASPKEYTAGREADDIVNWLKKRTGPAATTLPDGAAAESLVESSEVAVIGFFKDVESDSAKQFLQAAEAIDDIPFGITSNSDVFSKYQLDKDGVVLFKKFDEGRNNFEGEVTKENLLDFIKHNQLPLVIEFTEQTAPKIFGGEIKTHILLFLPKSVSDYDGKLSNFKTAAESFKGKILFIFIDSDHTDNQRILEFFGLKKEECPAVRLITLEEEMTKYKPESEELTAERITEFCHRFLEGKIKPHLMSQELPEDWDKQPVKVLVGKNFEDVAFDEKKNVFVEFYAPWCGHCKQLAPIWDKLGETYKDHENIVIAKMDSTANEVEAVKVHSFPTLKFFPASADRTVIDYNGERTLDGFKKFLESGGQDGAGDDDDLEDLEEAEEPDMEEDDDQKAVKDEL

[2] = biological target: T2, 3x Flag-tagged EDEM2 C65A (human) (UniProt Q9BV94); assay: as above
T2 sequence: T1 sequence with C44A, A387C

[3] = biological target: T3, 3x Flag-tagged WT EDEM2 (human) (UniProt Q9BV94); assay: as above
T3 sequence: T1 sequence with A387C

[4] = biological target: T4, 3x Flag-tagged EDEM2 C558A (human) (UniProt Q9BV94); assay: as above
T4 sequence: T1 sequence with A387C, C537A

[5] = biological target: T5, tandem affinity purification (TAP)-tagged EDEM2 (WT) (human) (UniProt Q9BV94); assay: pull-down; EDEM2-KO cells co-transfected with TAP-EDEM2 and TXNDC11(M1A)-3xFlag; lysis in 50 mM MES pH 7.5, 150 mM NaCl, 1% CHAPS; IgG Sepharose beads 8 hr at 4°C; wash with 400 mM NaCl, 0.1% CHAPS overnight; eluted with AcTEV protease; eluates read by silver staining and by immunoblotting
T5 sequence: T1 sequence with A387C

- binding [1]: binds
- binding [2]: binds
- binding [3]: binds
- binding [4]: binds
Molecule: endogenous PDI (from UniProt P07237 18-508) (enzyme)

- binding [5]: binds
B1: TXNDC11(M1A)-3xFlag (protein, UniProt Q6PKC3-2 58-958)
chain: MARQRPELLCGAVALGCALLLALKFTCSRAKDVIIPAKPPVSFFSLRSPVLDLFQGQLDYAEYVRRDSEVVLLFFYAPWCGQSIAARAEIEQAASRLSDQVLFVAINCWWNQGKCRKQKHFFYFPVIYLYHRSFGPIEYKGPMSAVYIEKFVRRVMKPLLYIPSQSELLDFLSNYEPGVLGYFEFSGSPQPPGYLTFFTSALHSLKKDYLGTVRFGVITNKHLAKLVSLVHSGSVYLHRHFNTSLVFPREVLNYTAENICKWALENQETLFRWLRPHGGKSLLLNNELKKGPALFLFIPFNPLAESHPLIDEITEVALEYNNCHGDQVVERLLQHLRRVDAPVLESLALEVPAQLPDPPTITASPCCNTVVLPQWHSFSRTHNVCELCVNQTSGGMKPSSVSVPQCSFFEMAAALDSFYLKEQTFYHVASDSIECSNFLTSYSPFSYYTACCRTISRGVSGFIDSEQGVFEAPTVAFSSLEKKCEVDAPSSVPHIEENRYLFPEVDMTSTNFTGLSCRTNKTLNIYLLDSNLFWLYAERLGAPSSTQVKEFAAIVDVKEESHYILDPKQALMKLTLESFIQNFSVLYSPLKRHLIGSGSAQFPSQHLITEVTTDTFWEVVLQKQDVLLLYYAPWCGFCPSLNHIFIQLARNLPMDTFTVARIDVSQNDLPWEFMVDRLPTVLFFPCNRKDLSVKYPEDVPITLPNLLRFILHHSDPASSPQNVANSPTKECLQSEAVLQRGHISHLEREIQKLRAEISSLQRAQVQVESQLSSARRDEHRLRQQQRALEEQHSLLHAHSEQLQALYEQKTRELQELARKLQELADASENLLTENTWLKILVATMERKLEGRDGAESLAAQREVHPKQPEPSATPQLPGSSPPPANVSATLVSERNKENRTD
modifications: N-glycosylated
